Data taken from publication PMC7819943, “Rice protein-binding microarrays: a tool to detect cis-acting elements near promoter regions in rice”.
Some of the results follow.

What follows are sequences tested against T1, OsSMF1 (Oryza sativa, UniProt Q6ZLB0 1-436) (assay: protein-binding microarray (RPBM); PBS, 2% BSA, 51.3 ng/ul salmon testes DNA, 50 uM zinc acetate, 200 nM TF, 25 C, 1 h; high values mean tight binding). Details: protein: recombinant; tags: N-terminal polyhistidine and DsRed monomer fusion (pET32a); chain copies: 2; label: CyDye5-dUTP incorporated in the synthesized complementary strand; 3' TTTTT single-stranded linker to array surface; dsDNA, one strand shown.
T1 sequence: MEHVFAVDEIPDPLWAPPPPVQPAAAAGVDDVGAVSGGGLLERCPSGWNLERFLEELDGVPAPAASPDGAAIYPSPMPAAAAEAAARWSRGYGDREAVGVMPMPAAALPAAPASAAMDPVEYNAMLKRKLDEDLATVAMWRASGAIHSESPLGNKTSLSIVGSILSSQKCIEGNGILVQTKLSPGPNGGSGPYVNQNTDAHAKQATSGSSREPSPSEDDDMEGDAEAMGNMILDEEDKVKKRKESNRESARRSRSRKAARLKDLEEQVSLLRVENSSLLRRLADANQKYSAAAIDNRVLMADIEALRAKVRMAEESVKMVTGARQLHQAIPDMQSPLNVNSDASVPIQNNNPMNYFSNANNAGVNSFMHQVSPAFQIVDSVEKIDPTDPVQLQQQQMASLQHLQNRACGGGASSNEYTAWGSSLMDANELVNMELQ
In short: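 Polyhistidine-tagged DsRed fusions of transcription factors, joined at the N-terminus, were expressed in E. coli BL21-CodonPlus and isolated on Ni–NTA. They were incubated at 200 nM for 1 h at 25 °C on a custom Agilent array, double-stranded and BSA-blocked, in PBS with 2% BSA, salmon testes DNA and 50 µM zinc acetate. The binding signal is per-feature fluorescence intensity (arbitrary units) read on an Axon 4000B scanner after washing.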

Sequence	binding signal
ATCCATGGCCACACGATGCGGTCGGGATCGACGGCGGAGACGGAGTCACCTAGTGCAG	3180 fluorescence intensity (a.u.)
CGGCTGCGCTGACGACGACGACCGGCGCCCAGTACAGCTGCGGAGTCACCTAGTGCAG	3190 fluorescence intensity (a.u.)
TCTTGGACCTTATTTGCACGGTTTTAGGAGTTGAGGGACACGGAGTCACCTAGTGCAG	3140 fluorescence intensity (a.u.)
CTTCTTTCCCGCACGCGCGGCTCGCGCATGCATGCACGATCGGAGTCACCTAGTGCAG	15000 fluorescence intensity (a.u.)
GACAAGACCAGTTAAAATACATCAGATTAGGCAGTGCTGACGGAGTCACCTAGTGCAG	3880 fluorescence intensity (a.u.)
TAGGACCAAAACCATAGCCCATGTCAGCCGCATCCGACCCCGGAGTCACCTAGTGCAG	3440 fluorescence intensity (a.u.)
CAGCTAATTCCAAGCTTAAAACCTGGCTTAATGCTACTGCCGGAGTCACCTAGTGCAG	3370 fluorescence intensity (a.u.)
ACTTACCCTTTACTTTCACCCTTGGCTGTCATTCAGGTACCGGAGTCACCTAGTGCAG	3170 fluorescence intensity (a.u.)
ACAATAAATAGAAGAGAAGAGCTTCAATCGCAATCGGAATCGGAGTCACCTAGTGCAG	26700 fluorescence intensity (a.u.)
ACCGCGAGACCGAGGGCTAACGTCACGCCCTCATGCATCCCGGAGTCACCTAGTGCAG	3690 fluorescence intensity (a.u.)
ATCAAAAGTGGGGCGGCCCACGTGTCAGTGGCACCAAGTCCGGAGTCACCTAGTGCAG	11400 fluorescence intensity (a.u.)
CGCTCGCACGGCCTCACCCGACCACCGCCACCGCACAAATCGGAGTCACCTAGTGCAG	3860 fluorescence intensity (a.u.)
GCCATTCCAGTCATTGGCATTGTTGTTTCCTGTCCACTGACGGAGTCACCTAGTGCAG	3370 fluorescence intensity (a.u.)
GAGAGAGAGAGAGAGAGGCAGGTGGCGCCGCCGCTGTCCCCGGAGTCACCTAGTGCAG	3640 fluorescence intensity (a.u.)
TGAGACCAAGTCCAACGCATACACTCCAACCACTCCTCTCCGGAGTCACCTAGTGCAG	3190 fluorescence intensity (a.u.)
CACTTTGGTAATAAAAGCTGGACCAATCTGCAATTTACTCCGGAGTCACCTAGTGCAG	15000 fluorescence intensity (a.u.)
GGCCGCGTGCGTGTGTCCAAACCTTCTCCACGCATTTCCTCGGAGTCACCTAGTGCAG	4220 fluorescence intensity (a.u.)
ATGGGGAGCGCAACGGGGAGAGCGAGGAGGCCGCCGTCCTCGGAGTCACCTAGTGCAG	3470 fluorescence intensity (a.u.)
TAGCTCGTACTCCTACATCGTAGCCACCGCGCCTCCCATGCGGAGTCACCTAGTGCAG	3640 fluorescence intensity (a.u.)
AATCCTGACGATAGGCGAATTATCCTATCTGCGTGGAATCCGGAGTCACCTAGTGCAG	3400 fluorescence intensity (a.u.)
AATTATTACAAACCACGACAATCAGCCAGCTTCTCCACGGCGGAGTCACCTAGTGCAG	3970 fluorescence intensity (a.u.)

Sequence	binding signal
CCAGCCATGTAATACCATGTCAGCTAAAACCACTGTCCAACGGAGTCACCTAGTGCAG	3160 fluorescence intensity (a.u.)
AAGATGGACGGTTAAATATTGGACACGGATATCAGGGTTTCGGAGTCACCTAGTGCAG	27700 fluorescence intensity (a.u.)
GAACACGGACACAGCAACACTGTGAACACACACGCACACCCGGAGTCACCTAGTGCAG	3140 fluorescence intensity (a.u.)
ATTACTAATTACTGTATGTTACTTGACTAAACAACCTATGCGGAGTCACCTAGTGCAG	3340 fluorescence intensity (a.u.)
TAGCTAGGCAGGGCTGCTGCTGCTGCCATCCCATTACGTGCGGAGTCACCTAGTGCAG	13600 fluorescence intensity (a.u.)
GTAGGAACTTGACATGTAGGTGGTAGGCTGGGGCTGAATACGGAGTCACCTAGTGCAG	3540 fluorescence intensity (a.u.)
GGCGATGACATGTTTATTTTGTCCCATTTTGACACATGCACGGAGTCACCTAGTGCAG	4310 fluorescence intensity (a.u.)
CTCTCATCATCATCATCATCCTCCTCCTCCCTATCCCCTTCGGAGTCACCTAGTGCAG	3760 fluorescence intensity (a.u.)
GGTCGGTTTTAGCTGCTGCTGCTGCGCCACAATGAGGTGGCGGAGTCACCTAGTGCAG	5200 fluorescence intensity (a.u.)
CATCGAGCTCATCCTATTGACTAGTCATAATGGGTTGTAACGGAGTCACCTAGTGCAG	13900 fluorescence intensity (a.u.)
GTAGCCAGCCCAGGCCCGGCACGGCACGTCAGCCTGTGGGCGGAGTCACCTAGTGCAG	8400 fluorescence intensity (a.u.)
CGTACGGATATGCCCACGTGGCGAAGTCCCACGACGCCACCGGAGTCACCTAGTGCAG	9930 fluorescence intensity (a.u.)
AAGGCAATTCGAACTGGCGCCTGCATCGCCGACGTGGCGCCGGAGTCACCTAGTGCAG	15100 fluorescence intensity (a.u.)
ACCTTTTCTGCGCACTACTACTAGTAGTAGTATTTCGTCCCGGAGTCACCTAGTGCAG	3230 fluorescence intensity (a.u.)
AGCCGAGCCCCAGTCACGTCACGTCACCGCATCGCATGGGCGGAGTCACCTAGTGCAG	4920 fluorescence intensity (a.u.)
TGTTTGGATAATGGAAAATGTGGAGTGGAATTGGGATTGACGGAGTCACCTAGTGCAG	27600 fluorescence intensity (a.u.)
GTCATTGGGTTGGGAATGGCCTAATTGGCTGACGCCACAACGGAGTCACCTAGTGCAG	5280 fluorescence intensity (a.u.)
TTATTTACTGAGTTCGGTTGCTATTGCACTGGGTAGGAGTCGGAGTCACCTAGTGCAG	3630 fluorescence intensity (a.u.)
CATCTGCACGCATGAGTGAGCACACACGCAACACGATCGTCGGAGTCACCTAGTGCAG	3670 fluorescence intensity (a.u.)
CATGGAAGAGATAGAGCGAGAACTGCAAAGGAAAGACAAACGGAGTCACCTAGTGCAG	31000 fluorescence intensity (a.u.)
GCACGGCCTGCCGCGGCCCGTGGAAGGTGACGTCGCCGCCCGGAGTCACCTAGTGCAG	3430 fluorescence intensity (a.u.)

Sequence	binding signal
CATGCAATGTAGTTTCAGAGATCAGAGTCGAGACTGTCAACGGAGTCACCTAGTGCAG	3390 fluorescence intensity (a.u.)
AATTCTGTCCTGCTACTTTAATTTCGTTGAGGAATTCGGCCGGAGTCACCTAGTGCAG	3180 fluorescence intensity (a.u.)
CGCGCCACGGCGCACACGTGGCGCCGGCCGGAGCGCGCGCCGGAGTCACCTAGTGCAG	6100 fluorescence intensity (a.u.)
CCACAAGTAGATCGACGGAGACATTCTACTTGGCATGCATCGGAGTCACCTAGTGCAG	3340 fluorescence intensity (a.u.)
TCGATCCATCTGTGACAACTCTGTACCGAGTGACTGTGTGCGGAGTCACCTAGTGCAG	5080 fluorescence intensity (a.u.)
AGCCAGCCCAAAAGCCACGCCGTCCACTCCATCTCCGCCTCGGAGTCACCTAGTGCAG	48000 fluorescence intensity (a.u.)
CTCTTCTCTCCTCCACGCAAGCCATTCGCCTATGTGGATTCGGAGTCACCTAGTGCAG	5240 fluorescence intensity (a.u.)
GATTAATAGCAACCAAAACTCCTAAAGTACTAGCACGTGGCGGAGTCACCTAGTGCAG	5720 fluorescence intensity (a.u.)
AGCTCCAATACATCACGCTGCGTTTGCTCCATATCCCATTCGGAGTCACCTAGTGCAG	3760 fluorescence intensity (a.u.)
GATATTTGTGAGTCGCCGCGTCGGACGGACCACGTGGTTGCGGAGTCACCTAGTGCAG	6590 fluorescence intensity (a.u.)
CACAGCCGTCCATACCAGCATCCAACGGCCACGATCCTCCCGGAGTCACCTAGTGCAG	26000 fluorescence intensity (a.u.)
GGCGTCGCTCGCTCGCGCCTCGCCGCGTGGCTGGTTTGCACGGAGTCACCTAGTGCAG	5360 fluorescence intensity (a.u.)
GGCCCAATACCACATGTGACATCTCAGCCCACTAGGCCCACGGAGTCACCTAGTGCAG	3670 fluorescence intensity (a.u.)
CGGCTCGAGCTCGTCCTCTCCCTCCGGAGTCAGCGGCGGCCGGAGTCACCTAGTGCAG	3390 fluorescence intensity (a.u.)
AGATCGGCGGAGGCGGGCGTGAGCGGTGGCGGTGAGCGAGCGGAGTCACCTAGTGCAG	3260 fluorescence intensity (a.u.)
TGTGGACAAATCATTCGGGGTGACATTTGTGTGTTCTTGTCGGAGTCACCTAGTGCAG	3160 fluorescence intensity (a.u.)
CAACGAGTGTATTGTTGTATGTAAGGCTGATGTTGTCAAGCGGAGTCACCTAGTGCAG	3810 fluorescence intensity (a.u.)
ACTATGCTTGTGTTTAGTGCCACGTTAAAATTGGAAGTTTCGGAGTCACCTAGTGCAG	4620 fluorescence intensity (a.u.)
AAAATCTTGCAAGTGCACACATACAAACACTTGTAGTTTGCGGAGTCACCTAGTGCAG	3140 fluorescence intensity (a.u.)
GTAATACAGACACGTGGTATTGATGTACGTAGCACATGGTCGGAGTCACCTAGTGCAG	7180 fluorescence intensity (a.u.)
GACACTTTCACCATGGAAGATTGCTGCAGTATGACATGATCGGAGTCACCTAGTGCAG	3240 fluorescence intensity (a.u.)

Sequence	binding signal
CATTAAAGTTCCACGCGCCCTTGACATGTAAAGTGCATTTCGGAGTCACCTAGTGCAG	14900 fluorescence intensity (a.u.)
CAAAGCAGCAAAGACAATTTCATGGTCGTTCTCTTATCCCCGGAGTCACCTAGTGCAG	3410 fluorescence intensity (a.u.)
CCACGGGCTACAAAGCACGCGCGTCACTCGCTCTCGCGGCCGGAGTCACCTAGTGCAG	4390 fluorescence intensity (a.u.)
CCACCCGCTCGCCCGTCCGTTCGATTCGACGACACCTTCACGGAGTCACCTAGTGCAG	3860 fluorescence intensity (a.u.)
GCCGCCCGCTGGAGGTGCAATAGAGGGCGGAGCAGTAAGTCGGAGTCACCTAGTGCAG	4610 fluorescence intensity (a.u.)
GATTGGACGATGACCTCGTCATTCTTCCGGGGTGTACATTCGGAGTCACCTAGTGCAG	4140 fluorescence intensity (a.u.)
TAGCCTGTGTCATCAGTTTTCTGAACATGTGTGTCATCAGCGGAGTCACCTAGTGCAG	5100 fluorescence intensity (a.u.)
CCAGGAGGGTGAGCTTGATGCAGGGGCGGGTGCGGGCGAGCGGAGTCACCTAGTGCAG	3310 fluorescence intensity (a.u.)
GCCACCATCTCATCGGATAGAATGTGGGGTACACGTGCCGCGGAGTCACCTAGTGCAG	5570 fluorescence intensity (a.u.)
TTGATGCAATGGTTGCATGTGTCATATTTGTGCAATACCTCGGAGTCACCTAGTGCAG	5220 fluorescence intensity (a.u.)
GGTTACGTGCAGATCCTGACGCGATCTACCTAGCATTCTCCGGAGTCACCTAGTGCAG	5230 fluorescence intensity (a.u.)
ATTCTTCATTCTCATGTGATAATATCTAATTTTGACTGTACGGAGTCACCTAGTGCAG	3190 fluorescence intensity (a.u.)
CTCAGAGCCCCGGGAAAATCTGGGCCATCCACGTGTCCTCCGGAGTCACCTAGTGCAG	11400 fluorescence intensity (a.u.)
ACGAGAACCTATGCACTAGACACTATCAAGTTTTGCATTGCGGAGTCACCTAGTGCAG	3570 fluorescence intensity (a.u.)
GCCACCCATGTATCGTCTCTTCTTTATGTTTGTTTTGTTGCGGAGTCACCTAGTGCAG	3160 fluorescence intensity (a.u.)
GGCGGAGAAGCACGTGGAATATATTGGTGGGCGCGGATTTCGGAGTCACCTAGTGCAG	4070 fluorescence intensity (a.u.)
TCTTACAGCGCGCGTGTTCGTTCGAACGATTCTCTTCTTCCGGAGTCACCTAGTGCAG	51900 fluorescence intensity (a.u.)
TTCGTCTCGCAATTTACACGCAAACTGTGTAGTTAGTTTTCGGAGTCACCTAGTGCAG	3150 fluorescence intensity (a.u.)
CTAACTTTATTGTGCATATGTCAGTTCATAGGGTGAGTGTCGGAGTCACCTAGTGCAG	28600 fluorescence intensity (a.u.)
CGTGGCGAGCATCGAGCGGCGGCGCGCGCCGGGCGGGGCGCGGAGTCACCTAGTGCAG	3180 fluorescence intensity (a.u.)
ATCTGATCATCCTGGTCTGACGAGCATATCCATCTATCCTCGGAGTCACCTAGTGCAG	3600 fluorescence intensity (a.u.)

Reformatted: results already given
Sequence | binding signal
ACGAGAACCTATGCACTAGACACTATCAAGTTTTGCATTGCGGAGTCACCTAGTGCAG | 3570 fluorescence intensity (a.u.)
GCCACCCATGTATCGTCTCTTCTTTATGTTTGTTTTGTTGCGGAGTCACCTAGTGCAG | 3160 fluorescence intensity (a.u.)
GGCGGAGAAGCACGTGGAATATATTGGTGGGCGCGGATTTCGGAGTCACCTAGTGCAG | 4070 fluorescence intensity (a.u.)
TCTTACAGCGCGCGTGTTCGTTCGAACGATTCTCTTCTTCCGGAGTCACCTAGTGCAG | 51900 fluorescence intensity (a.u.)
TTCGTCTCGCAATTTACACGCAAACTGTGTAGTTAGTTTTCGGAGTCACCTAGTGCAG | 3150 fluorescence intensity (a.u.)
CTAACTTTATTGTGCATATGTCAGTTCATAGGGTGAGTGTCGGAGTCACCTAGTGCAG | 28600 fluorescence intensity (a.u.)
CGTGGCGAGCATCGAGCGGCGGCGCGCGCCGGGCGGGGCGCGGAGTCACCTAGTGCAG | 3180 fluorescence intensity (a.u.)
ATCTGATCATCCTGGTCTGACGAGCATATCCATCTATCCTCGGAGTCACCTAGTGCAG | 3600 fluorescence intensity (a.u.)
